The supplement of paper PMC10849652
Some of the results follow.

Protein sequences, listed by entry. Tags and fused reporters are not part of them. Lines headed by an entry give the natural chain unless they say otherwise; changes in a name come on top.
UniProt P26572: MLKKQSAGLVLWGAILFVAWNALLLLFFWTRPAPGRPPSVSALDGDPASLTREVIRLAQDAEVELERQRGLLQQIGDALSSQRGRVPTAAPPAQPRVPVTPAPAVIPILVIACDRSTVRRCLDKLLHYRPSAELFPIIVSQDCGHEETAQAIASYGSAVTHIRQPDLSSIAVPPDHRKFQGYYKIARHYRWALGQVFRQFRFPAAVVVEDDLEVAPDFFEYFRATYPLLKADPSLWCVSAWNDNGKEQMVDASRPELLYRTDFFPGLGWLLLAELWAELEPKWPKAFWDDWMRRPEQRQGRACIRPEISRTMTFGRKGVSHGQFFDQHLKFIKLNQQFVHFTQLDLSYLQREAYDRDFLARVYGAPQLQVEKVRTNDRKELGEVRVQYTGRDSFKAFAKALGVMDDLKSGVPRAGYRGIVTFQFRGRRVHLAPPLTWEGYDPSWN
UniProt Q12866: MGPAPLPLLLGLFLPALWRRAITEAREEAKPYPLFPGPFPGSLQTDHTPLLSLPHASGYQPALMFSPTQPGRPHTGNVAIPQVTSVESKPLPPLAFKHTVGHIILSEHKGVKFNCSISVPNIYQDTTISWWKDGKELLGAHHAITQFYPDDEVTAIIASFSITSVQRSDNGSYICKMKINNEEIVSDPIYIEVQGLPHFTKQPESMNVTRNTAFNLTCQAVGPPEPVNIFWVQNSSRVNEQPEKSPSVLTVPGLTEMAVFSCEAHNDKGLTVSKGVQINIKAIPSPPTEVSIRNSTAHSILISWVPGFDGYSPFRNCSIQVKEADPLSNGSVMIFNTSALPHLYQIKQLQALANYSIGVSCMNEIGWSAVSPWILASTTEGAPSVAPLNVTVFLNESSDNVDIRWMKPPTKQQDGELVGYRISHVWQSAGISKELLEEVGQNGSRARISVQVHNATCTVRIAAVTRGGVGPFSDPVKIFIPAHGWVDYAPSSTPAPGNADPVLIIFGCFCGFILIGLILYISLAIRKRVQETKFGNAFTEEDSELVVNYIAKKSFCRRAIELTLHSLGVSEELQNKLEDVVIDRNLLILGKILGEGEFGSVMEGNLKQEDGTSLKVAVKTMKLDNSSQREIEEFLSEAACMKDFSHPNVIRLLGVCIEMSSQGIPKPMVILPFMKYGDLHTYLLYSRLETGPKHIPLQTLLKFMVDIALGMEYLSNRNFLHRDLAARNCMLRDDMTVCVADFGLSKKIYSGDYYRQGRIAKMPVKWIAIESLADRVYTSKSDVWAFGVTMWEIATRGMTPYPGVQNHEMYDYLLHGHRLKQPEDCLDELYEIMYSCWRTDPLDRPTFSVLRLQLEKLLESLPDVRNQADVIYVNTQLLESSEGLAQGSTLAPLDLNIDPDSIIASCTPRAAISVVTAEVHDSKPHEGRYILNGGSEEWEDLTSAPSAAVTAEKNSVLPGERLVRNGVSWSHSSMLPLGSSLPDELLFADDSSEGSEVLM
UniProt Q6ZNC8: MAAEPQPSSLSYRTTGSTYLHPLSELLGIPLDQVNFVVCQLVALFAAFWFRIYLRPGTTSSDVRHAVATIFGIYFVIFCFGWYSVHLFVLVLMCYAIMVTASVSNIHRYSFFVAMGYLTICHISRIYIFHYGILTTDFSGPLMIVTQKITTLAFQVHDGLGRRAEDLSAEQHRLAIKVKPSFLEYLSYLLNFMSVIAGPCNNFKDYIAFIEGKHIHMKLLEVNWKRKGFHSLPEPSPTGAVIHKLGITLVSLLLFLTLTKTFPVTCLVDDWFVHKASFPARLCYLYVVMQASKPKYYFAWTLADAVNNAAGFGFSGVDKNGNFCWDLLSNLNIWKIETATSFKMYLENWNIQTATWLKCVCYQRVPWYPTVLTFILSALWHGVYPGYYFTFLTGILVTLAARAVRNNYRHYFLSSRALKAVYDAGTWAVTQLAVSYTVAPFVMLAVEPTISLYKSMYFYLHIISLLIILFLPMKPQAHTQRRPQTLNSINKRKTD
UniProt Q16626: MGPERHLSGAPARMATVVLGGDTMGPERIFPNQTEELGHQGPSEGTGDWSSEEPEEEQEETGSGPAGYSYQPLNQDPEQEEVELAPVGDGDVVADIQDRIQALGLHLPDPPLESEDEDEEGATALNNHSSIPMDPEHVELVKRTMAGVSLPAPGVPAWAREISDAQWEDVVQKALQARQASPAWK
UniProt Q86V88: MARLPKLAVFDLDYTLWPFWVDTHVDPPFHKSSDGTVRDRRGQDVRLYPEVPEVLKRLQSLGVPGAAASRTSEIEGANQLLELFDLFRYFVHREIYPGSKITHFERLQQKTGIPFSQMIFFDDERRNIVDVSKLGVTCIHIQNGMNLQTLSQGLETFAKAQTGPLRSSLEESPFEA
UniProt Q9HCC0: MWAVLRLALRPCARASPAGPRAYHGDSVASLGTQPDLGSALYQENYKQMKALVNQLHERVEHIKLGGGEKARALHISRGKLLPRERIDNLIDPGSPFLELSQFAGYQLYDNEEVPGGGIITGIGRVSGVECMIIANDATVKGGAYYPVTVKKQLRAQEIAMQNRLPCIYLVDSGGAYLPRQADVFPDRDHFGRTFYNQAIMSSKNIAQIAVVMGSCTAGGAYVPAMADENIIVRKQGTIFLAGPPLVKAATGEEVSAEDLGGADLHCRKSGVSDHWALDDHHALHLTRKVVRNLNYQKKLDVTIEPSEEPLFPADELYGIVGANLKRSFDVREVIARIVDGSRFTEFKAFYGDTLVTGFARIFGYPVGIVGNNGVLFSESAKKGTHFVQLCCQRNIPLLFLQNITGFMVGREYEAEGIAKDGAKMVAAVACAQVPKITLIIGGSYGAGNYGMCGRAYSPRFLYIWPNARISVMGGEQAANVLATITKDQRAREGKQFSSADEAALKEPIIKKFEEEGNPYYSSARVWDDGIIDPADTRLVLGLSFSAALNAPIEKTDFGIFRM
UniProt Q9GZU1, whole entry, looked up: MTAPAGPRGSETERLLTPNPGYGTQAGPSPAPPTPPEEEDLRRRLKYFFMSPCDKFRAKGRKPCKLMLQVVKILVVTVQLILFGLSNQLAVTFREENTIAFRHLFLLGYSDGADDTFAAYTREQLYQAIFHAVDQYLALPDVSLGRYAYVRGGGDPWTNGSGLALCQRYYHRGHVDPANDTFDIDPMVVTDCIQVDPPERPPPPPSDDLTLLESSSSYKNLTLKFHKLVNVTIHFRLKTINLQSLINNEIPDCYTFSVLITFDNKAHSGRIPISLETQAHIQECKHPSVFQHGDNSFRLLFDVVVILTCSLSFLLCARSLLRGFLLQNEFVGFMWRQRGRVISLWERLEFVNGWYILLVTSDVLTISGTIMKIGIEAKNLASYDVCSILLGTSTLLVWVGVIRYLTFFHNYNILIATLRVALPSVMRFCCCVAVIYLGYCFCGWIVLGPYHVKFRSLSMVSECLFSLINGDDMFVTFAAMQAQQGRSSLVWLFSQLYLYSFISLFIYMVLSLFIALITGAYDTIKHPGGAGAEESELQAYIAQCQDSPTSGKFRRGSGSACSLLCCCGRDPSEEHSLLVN
UniProt Q14676: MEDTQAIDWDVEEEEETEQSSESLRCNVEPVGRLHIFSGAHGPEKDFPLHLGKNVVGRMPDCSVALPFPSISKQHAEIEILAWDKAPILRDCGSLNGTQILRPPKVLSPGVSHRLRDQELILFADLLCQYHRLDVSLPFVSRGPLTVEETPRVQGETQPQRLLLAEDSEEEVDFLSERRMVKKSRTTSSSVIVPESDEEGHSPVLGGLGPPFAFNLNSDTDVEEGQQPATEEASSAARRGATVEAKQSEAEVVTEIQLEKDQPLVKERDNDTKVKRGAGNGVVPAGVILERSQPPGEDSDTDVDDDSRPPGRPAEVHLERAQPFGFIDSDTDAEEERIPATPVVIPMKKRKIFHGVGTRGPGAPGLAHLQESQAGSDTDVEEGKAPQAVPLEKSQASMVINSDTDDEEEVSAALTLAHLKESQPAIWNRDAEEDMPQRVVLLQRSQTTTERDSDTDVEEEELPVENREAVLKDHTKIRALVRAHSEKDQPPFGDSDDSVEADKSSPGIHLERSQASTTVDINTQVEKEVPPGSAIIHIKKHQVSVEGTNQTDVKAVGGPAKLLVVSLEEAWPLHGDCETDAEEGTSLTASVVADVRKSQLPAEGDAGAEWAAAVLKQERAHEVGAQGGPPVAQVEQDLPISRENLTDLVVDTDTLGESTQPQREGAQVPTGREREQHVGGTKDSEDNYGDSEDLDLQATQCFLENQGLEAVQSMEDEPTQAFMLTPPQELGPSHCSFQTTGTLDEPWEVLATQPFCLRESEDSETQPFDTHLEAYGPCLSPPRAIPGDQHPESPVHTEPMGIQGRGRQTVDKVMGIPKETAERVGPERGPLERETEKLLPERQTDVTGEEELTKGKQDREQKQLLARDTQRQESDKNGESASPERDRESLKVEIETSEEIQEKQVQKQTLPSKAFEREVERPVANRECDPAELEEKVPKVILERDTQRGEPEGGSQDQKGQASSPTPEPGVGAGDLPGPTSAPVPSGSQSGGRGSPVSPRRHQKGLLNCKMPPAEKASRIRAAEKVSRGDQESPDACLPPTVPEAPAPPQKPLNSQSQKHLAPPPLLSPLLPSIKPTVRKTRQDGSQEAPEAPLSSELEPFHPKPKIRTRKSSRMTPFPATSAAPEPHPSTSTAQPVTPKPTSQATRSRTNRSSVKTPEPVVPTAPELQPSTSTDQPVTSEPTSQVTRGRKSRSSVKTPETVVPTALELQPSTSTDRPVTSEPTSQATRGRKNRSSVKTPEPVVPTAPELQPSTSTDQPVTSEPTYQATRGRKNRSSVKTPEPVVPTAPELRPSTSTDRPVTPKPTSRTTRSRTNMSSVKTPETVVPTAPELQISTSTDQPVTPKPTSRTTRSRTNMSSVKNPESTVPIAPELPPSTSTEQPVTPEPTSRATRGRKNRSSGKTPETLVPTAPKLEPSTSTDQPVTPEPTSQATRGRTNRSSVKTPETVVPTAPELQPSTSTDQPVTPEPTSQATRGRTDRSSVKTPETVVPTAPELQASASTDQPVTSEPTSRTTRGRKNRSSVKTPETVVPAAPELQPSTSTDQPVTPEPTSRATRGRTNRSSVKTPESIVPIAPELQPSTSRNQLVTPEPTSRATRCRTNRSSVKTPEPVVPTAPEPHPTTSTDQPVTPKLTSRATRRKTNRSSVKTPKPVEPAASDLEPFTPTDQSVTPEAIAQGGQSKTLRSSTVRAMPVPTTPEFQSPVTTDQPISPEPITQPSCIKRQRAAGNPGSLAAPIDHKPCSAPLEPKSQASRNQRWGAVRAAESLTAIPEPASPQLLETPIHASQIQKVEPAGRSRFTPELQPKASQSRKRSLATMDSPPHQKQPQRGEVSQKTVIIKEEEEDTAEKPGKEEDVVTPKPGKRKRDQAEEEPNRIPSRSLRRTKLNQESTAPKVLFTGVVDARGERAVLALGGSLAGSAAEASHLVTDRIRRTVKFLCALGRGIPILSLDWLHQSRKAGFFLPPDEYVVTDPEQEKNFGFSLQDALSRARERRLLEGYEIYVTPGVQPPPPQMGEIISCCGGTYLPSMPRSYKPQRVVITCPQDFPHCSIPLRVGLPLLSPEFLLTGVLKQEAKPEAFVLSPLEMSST
UniProt A0JLT2: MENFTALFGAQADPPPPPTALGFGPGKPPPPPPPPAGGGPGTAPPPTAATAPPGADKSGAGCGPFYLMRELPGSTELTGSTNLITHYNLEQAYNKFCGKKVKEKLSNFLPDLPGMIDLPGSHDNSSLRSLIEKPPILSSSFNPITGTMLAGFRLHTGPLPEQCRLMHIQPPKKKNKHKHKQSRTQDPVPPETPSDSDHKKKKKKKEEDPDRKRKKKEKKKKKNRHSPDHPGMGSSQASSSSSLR
UniProt Q71SY5: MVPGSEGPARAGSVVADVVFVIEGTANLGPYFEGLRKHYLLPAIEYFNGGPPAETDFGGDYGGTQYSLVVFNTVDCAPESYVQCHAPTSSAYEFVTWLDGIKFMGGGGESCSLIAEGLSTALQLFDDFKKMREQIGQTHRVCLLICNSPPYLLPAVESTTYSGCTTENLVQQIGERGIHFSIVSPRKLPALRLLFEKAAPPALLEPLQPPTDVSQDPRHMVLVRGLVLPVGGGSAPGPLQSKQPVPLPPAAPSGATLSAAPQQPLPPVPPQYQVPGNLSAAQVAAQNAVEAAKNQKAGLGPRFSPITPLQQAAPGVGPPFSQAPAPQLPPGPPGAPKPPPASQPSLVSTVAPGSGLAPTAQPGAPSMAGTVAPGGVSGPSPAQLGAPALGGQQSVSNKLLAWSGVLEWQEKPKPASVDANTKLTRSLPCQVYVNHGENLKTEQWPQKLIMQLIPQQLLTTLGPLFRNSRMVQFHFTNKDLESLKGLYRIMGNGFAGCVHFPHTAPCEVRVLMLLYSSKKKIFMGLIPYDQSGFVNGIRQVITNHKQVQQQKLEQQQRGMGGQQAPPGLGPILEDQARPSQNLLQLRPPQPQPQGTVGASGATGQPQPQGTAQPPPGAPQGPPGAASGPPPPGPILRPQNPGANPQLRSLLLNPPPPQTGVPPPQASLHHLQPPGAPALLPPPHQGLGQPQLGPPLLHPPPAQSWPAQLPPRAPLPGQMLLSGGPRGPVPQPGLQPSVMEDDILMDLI

What was measured:
Test in all cases: log2 fold change, soluble protein after heating vs DMSO (PISA); higher = thermal stabilisation; K562 cells, 10 uM, 30 min; active = over 0.2 and 3.5 SD of the protein, either way, in both replicates (recomputed)
[1] = compound: CS(=O)(=O)c1ccc(-c2cnc(N)c(C(=O)Nc3ccccc3)n2)cc1
Outline: (§1)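 Soluble protein was quantified by TMTpro 16plex LC-MS/MS after channel sums were equalised. It was obtained as the supernatant after 21,000xg for 90 min from pooled aliquots of K562 cells (2×10^6 cells/mL, 10 μM compound, 30 min) heated for 3 min across 48°C-58°C and extracted in PBS with 0.5% NP-40 at 4°C. Thermal stability values are relative to control samples and come from duplicates. They are given as log2 fold changes.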

crizotinib = compound: C[C@@H](Oc1cc(-c2cnn(C3CCNCC3)c2)cnc1N)c1c(Cl)ccc(F)c1Cl [crizotinib]
Outline: as §1

[2] = compound: C[C@@H]1COCCN1C2=NC(=NC(=C2)C3(CC3)S(=O)(=O)C)C4=C5C=CNC5=CC=C4
Outline: as §1

[3] = compound: C[C@H](C1=CC=C(C=C1)C(=O)NC2=C3C=CNC3=NC=C2)N
Outline: as §1

duvelisib = compound: C[C@H](Nc1ncnc2nc[nH]c12)c1cc2cccc(Cl)c2c(=O)n1-c1ccccc1 [duvelisib]
Outline: as §1

gandotinib = compound: Cc1cc(Nc2cc(CN3CCOCC3)c3nc(C)c(Cc4ccc(Cl)cc4F)n3n2)n[nH]1 [gandotinib]
Outline: as §1

tozasertib = compound: Cc1cc(Nc2cc(N3CCN(C)CC3)nc(Sc3ccc(NC(=O)C4CC4)cc3)n2)n[nH]1 [tozasertib]
Outline: as §1

[4] = compound: Cc1cc(SCc2sc(-c3ccc(C(F)(F)F)cc3)nc2C)ccc1OCC(=O)O
Outline: as §1

doramapimod = compound: Cc1ccc(-n2nc(C(C)(C)C)cc2NC(=O)Nc2ccc(OCCN3CCOCC3)c3ccccc23)cc1 [doramapimod]
Outline: as §1

ispinesib = compound: Cc1ccc(C(=O)N(CCCN)[C@@H](c2nc3cc(Cl)ccc3c(=O)n2Cc2ccccc2)C(C)C)cc1 [ispinesib]
Outline: as §1

| Target | log2 fold change [1] | log2 fold change (crizotinib) | log2 fold change [2] | log2 fold change [3] | log2 fold change (duvelisib) | log2 fold change (gandotinib) | log2 fold change (tozasertib) | log2 fold change [4] | log2 fold change (doramapimod) | log2 fold change (ispinesib) |
| --- | --- | --- | --- | --- | --- | --- | --- | --- | --- | --- |
| MAT2A (UniProt P31153) | inactive: 0.009 | inactive: 0.067 | inactive: 0.026 | inactive: -0.038 | inactive: 0.007 | inactive: 0.023 | inactive: -0.029 | inactive: -0.048 | inactive: -0.023 | inactive: 0.029 |
| MGAT1 (UniProt P26572) | inactive: 0.038 | inactive: 0.067 | inactive: -0.035 | inactive: 0.036 | inactive: 0.011 | inactive: 0.018 | inactive: 0.009 | inactive: 0.037 | inactive: 0.052 | inactive: 0.057 |
| MIB1 (UniProt Q86YT6) | inactive: -0.108 | inactive: -0.12 | inactive: 0.058 | inactive: 0.068 |  | inactive: 0.025 | inactive: 0.048 |  | inactive: 0.124 | inactive: -0.129 |
| MCFD2 (UniProt Q8NI22) | inactive: -0.004 | inactive: 0.138 | inactive: 0.332 | inactive: -0.154 | inactive: 0.214 | inactive: 0.173 | inactive: -0.024 | inactive: -0.065 | inactive: 0.075 | inactive: 0.211 |
| MEF2D (UniProt Q14814) | inactive: 0.051 | inactive: 0.145 | inactive: 0.106 | inactive: -0.003 | inactive: 0.047 | inactive: -0.03 | inactive: -0.002 | inactive: 0 | inactive: -0.077 | inactive: -0.09 |
| METTL25 (UniProt Q8N6Q8) | inactive: 0.045 | inactive: 0.083 | inactive: -0.099 | inactive: 0.164 | inactive: 0.267 | inactive: -0.161 |  | inactive: -0.074 | inactive: -0.065 |  |
| MERTK (UniProt Q12866) | inactive: 0.067 | inactive: -0.106 | inactive: -0.161 | inactive: -0.067 | inactive: 0.082 |  | inactive: -0.048 | inactive: -0.174 |  |  |
| MGAT2 (UniProt Q10469) | inactive: -0.009 | inactive: -0.047 | inactive: 0.052 | inactive: -0.03 | inactive: 0.018 | inactive: -0.015 | inactive: 0.031 | inactive: 0.03 | inactive: -0.039 | inactive: 0.015 |
| MBOAT1 (UniProt Q6ZNC8) | inactive: 0.065 | inactive: 0.015 | inactive: 0.087 | inactive: -0.071 | inactive: 0.059 |  | inactive: 0.079 | inactive: -0.036 | inactive: -0.029 | inactive: -0.423 |
| MEA1 (UniProt Q16626) | inactive: -0.02 | inactive: 0.061 | inactive: 0.136 | inactive: -0.118 | inactive: 0.056 | inactive: -0.066 | inactive: -0.032 | inactive: -0.083 | inactive: 0.053 | inactive: 0.052 |
| MELK (UniProt Q14680) | inactive: 0.109 | inactive: -0.128 | inactive: -0.099 | inactive: 0.054 |  | inactive: -0.046 |  | inactive: -0.047 | inactive: -0.011 |  |
| MCRIP1 (UniProt I3L4Q0) | inactive: 0.002 | inactive: 0.037 | inactive: 0.036 | inactive: -0.023 | inactive: 0.073 | inactive: -0.018 | inactive: 0.061 | inactive: -0.018 | inactive: -0.014 | inactive: -0.066 |
| MCM6 (UniProt Q14566) | inactive: 0.016 | inactive: -0.001 | inactive: 0.051 | inactive: -0.048 | inactive: 0.015 | inactive: -0.096 | inactive: 0.032 | inactive: 0.008 | inactive: -0.006 | inactive: 0.019 |
| MFSD11 (UniProt O43934) | inactive: -0.098 | active: -0.683 | inactive: -0.223 | inactive: 0.074 |  | inactive: 0.036 |  | inactive: -0.063 | inactive: 0.008 |  |
| MBNL1 (UniProt Q9NR56) | inactive: 0.005 | inactive: 0.046 | inactive: -0.024 | inactive: 0.018 | inactive: -0.066 | inactive: -0.004 | inactive: -0.081 | inactive: -0.061 | inactive: -0.079 | inactive: -0.018 |
| MDP1 (UniProt Q86V88) | inactive: 0.022 | inactive: 0.14 | inactive: 0.094 | inactive: 0.135 | inactive: 0.048 | inactive: 0.004 | inactive: 0.005 | inactive: -0.072 | inactive: 0.053 | inactive: 0.019 |
| METTL16 (UniProt Q86W50) | inactive: -0.11 | inactive: 0.082 | inactive: 0.012 | inactive: -0.078 | inactive: 0.018 | inactive: -0.069 | inactive: 0.03 | inactive: 0.026 | inactive: -0.004 | inactive: 0.031 |
| MCCC2 (UniProt Q9HCC0) | inactive: -0.004 | inactive: 0.028 | inactive: 0.027 | inactive: -0.053 |  | inactive: 0.051 |  | inactive: -0.022 | inactive: 0 | inactive: 0.047 |
| MCOLN1 (UniProt Q9GZU1) | inactive: -0.006 | inactive: -0.205 | inactive: 0.192 |  | inactive: 0.122 | inactive: -0.064 |  | inactive: -0.207 | inactive: 0.157 | inactive: -0.959 |
| MDC1 (UniProt Q14676) | inactive: -0.053 | inactive: -0.109 | inactive: 0.041 | inactive: 0.107 |  | inactive: 0.423 |  | inactive: -0.031 | inactive: 0.178 | inactive: -0.217 |
| MFGE8 (UniProt Q08431) | inactive: 0.063 | inactive: 0.04 | inactive: -0.129 | inactive: 0.087 |  | inactive: -0.015 |  | inactive: 0.057 | inactive: 0.046 | inactive: -0.122 |
| MED19 (UniProt A0JLT2) | inactive: 0.117 | inactive: -0.536 | inactive: -0.084 |  |  | inactive: -0.154 |  |  | inactive: 0.013 | inactive: -0.069 |
| MED25 isoform 3 (UniProt Q71SY5) | inactive: 0.061 | inactive: 0.021 |  | inactive: 0 |  | inactive: 0.19 |  | inactive: 0.162 | inactive: 0.085 | inactive: -0.018 |
| MCM10 (UniProt Q7L590) | inactive: -0.171 | inactive: -0.015 | inactive: -0.102 |  |  | inactive: 0.092 |  |  | inactive: -0.01 |  |
| MED1 (UniProt Q15648) | inactive: 0.011 | inactive: 0.014 | inactive: 0.043 | inactive: 0.04 |  | inactive: -0.025 |  | inactive: -0.05 | inactive: 0.11 | inactive: -0.078 |
| MFN1 (UniProt Q8IWA4) | inactive: 0.031 | inactive: -0.026 | inactive: 0.027 | inactive: -0.063 |  | inactive: 0.025 |  | inactive: 0.039 | inactive: 0.02 | inactive: -0.207 |
| MED8 isoform 2 (UniProt Q96G25) | inactive: 0.021 | inactive: 0.037 | inactive: -0.049 | inactive: -0.077 |  |  |  | inactive: -0.079 | inactive: -0.031 | inactive: 0.012 |

2 records picked at random from the list so far:

| Target | log2 fold change [1] | log2 fold change (crizotinib) | log2 fold change [2] | log2 fold change [3] | log2 fold change (duvelisib) | log2 fold change (gandotinib) | log2 fold change (tozasertib) | log2 fold change [4] | log2 fold change (doramapimod) | log2 fold change (ispinesib) |
| --- | --- | --- | --- | --- | --- | --- | --- | --- | --- | --- |
| MIB1 (UniProt Q86YT6) | inactive: -0.108 | inactive: -0.12 | inactive: 0.058 | inactive: 0.068 |  | inactive: 0.025 | inactive: 0.048 |  | inactive: 0.124 | inactive: -0.129 |
| MCCC2 (UniProt Q9HCC0) | inactive: -0.004 | inactive: 0.028 | inactive: 0.027 | inactive: -0.053 |  | inactive: 0.051 |  | inactive: -0.022 | inactive: 0 | inactive: 0.047 |
